The target of assay [1] is cYFP-ATG8f (N. benthamiana). The experiment in a line: split reporter; BiFC (nYFP and cYFP halves) in agroinfiltrated N. benthamiana leaves, confocal microscopy at 2-2.5 dpai; RFP-SKL, RFP-AtTim21 or p33-BFP mark the VROs; the VPS34-p33 pair was tested in ATG8f-silenced and TRV2-MBP control plants.
For assay [2], the target named is full-length TBSV p33 replication protein, MYTH bait (Tomato bushy stunt virus). In words: two-hybrid; split-ubiquitin-based membrane yeast two-hybrid (MYTH); p33 as bait, NubG preys.
Assay [3] concerns the target TBSV p33-cYFP replication protein (Tomato bushy stunt virus). In words: split reporter; BiFC (nYFP and cYFP halves) in agroinfiltrated N. benthamiana leaves, confocal microscopy at 2-2.5 dpai; RFP-SKL, RFP-AtTim21 or p33-BFP mark the VROs; the VPS34-p33 pair was tested in ATG8f-silenced and TRV2-MBP control plants.
Assay [4] addresses cYFP-ATG8f (N. benthamiana). The assay is described as above. The source holds these as a separate data set.

By UniProt entry, the sequences of proteins in these tests, tags left out. Where a name states a change or a piece, a line headed by the entry shows the natural chain unless it says otherwise.
UniProt A0A3Q9VF17: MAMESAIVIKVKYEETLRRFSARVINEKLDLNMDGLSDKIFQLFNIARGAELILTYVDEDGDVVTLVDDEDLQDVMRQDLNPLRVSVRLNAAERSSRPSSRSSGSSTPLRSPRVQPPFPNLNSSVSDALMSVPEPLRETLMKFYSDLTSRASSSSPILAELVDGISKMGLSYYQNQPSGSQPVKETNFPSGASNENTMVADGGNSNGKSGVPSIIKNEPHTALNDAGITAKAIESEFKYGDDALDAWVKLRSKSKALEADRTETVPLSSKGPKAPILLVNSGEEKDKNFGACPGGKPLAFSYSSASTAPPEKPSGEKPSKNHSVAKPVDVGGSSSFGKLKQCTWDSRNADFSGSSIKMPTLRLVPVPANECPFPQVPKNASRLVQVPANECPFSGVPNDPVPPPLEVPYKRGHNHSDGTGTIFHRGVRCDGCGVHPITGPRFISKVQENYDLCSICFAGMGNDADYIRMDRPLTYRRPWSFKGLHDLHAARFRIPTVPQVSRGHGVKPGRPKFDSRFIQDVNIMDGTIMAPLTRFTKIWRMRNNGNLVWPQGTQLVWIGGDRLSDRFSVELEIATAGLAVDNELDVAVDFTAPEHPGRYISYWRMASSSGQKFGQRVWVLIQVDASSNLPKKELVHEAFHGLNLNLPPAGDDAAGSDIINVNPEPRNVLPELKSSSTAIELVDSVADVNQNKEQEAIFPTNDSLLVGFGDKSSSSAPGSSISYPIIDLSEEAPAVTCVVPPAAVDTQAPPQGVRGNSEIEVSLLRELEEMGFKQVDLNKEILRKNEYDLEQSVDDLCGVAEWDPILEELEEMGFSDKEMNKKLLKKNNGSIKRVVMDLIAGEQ

Like-named read-outs stand apart in the source and are kept apart here. These are yes or no findings as the source states them, for the method shown. A result given as binding can be weak or reduced; the word gives no strength. For some of these results: Where a sequence is shown, tags or fusion partners need not be part of it. For some of these results: Binding seen in cells or lysates may run through a third protein.

Regarding nYFP-NBR1 (from UniProt A0A3Q9VF17), the binding entry in assay [1] is on record as “binds”.

B1: GST-His6-ScATG8, MYTH prey (protein, UniProt P38182 1-117)
chain: MKSTFKSEYPFEKRKAESERIADRFKNRIPVICEKAEKSDIPEIDKRKYLVPADLTVGQFVYVIRKRIMLPPEKAIFIFVNDTLPPTAALMSAIYQEHKDKDGFLYVTYSGENTFGR
For B1, the binding entry in assay [2] is “binds”.

B2: nYFP-SH3P2 (protein, UniProt Q8VWF1 1-368)
chain: MDAIRKQASRLREQVARQQQAVFKQFGGGGYGSGLADEAELNQHQKLEKLYISTRAAKHYQRDIVRGVEGYIVTGSKQVEIGTKLSEDSRKYGSENTCTNGNVLTRAALNYGRARAQMEKERGNMLKALGTQVAEPLRAMVLGAPLEDARHLAQRYDRMRQEAEAQATEVARRQAKARESQGNPDILMKLESAEAKLHDLKSNMTILGKEAASALASVEDQQQKLTLERLLSMVESERAYHQRVLQILDQLEGEMVSERQRIEAPSTPSSADSMPPPPSYEEANGVFASQMHDTSTDSMGYFLGEVLFPYHGVTDVELSLSTGEYVVVRKVTGSGWAEGECKGKAGWFPYGYIERRERVLASKVSEVF
Consider B2, for which the binding entry in assay [3] and in assay [4] was “binds” each time.
